Measured values taken from the supplement of paper PMC7877785.
± gives the uncertainty stated by the source. The uncertainty is large for many entries.

Experiment: self-splicing fitness, log relative to wild type (ln ratio); higher = more splicing; Tetrahymena group I intron in knt gene, E. coli kanamycin selection, DiMSum; sequences stand for … in CUCUCU…GGAGGGAAAAGUUAUCAGGCAUGCACCUGGUAGCUAGUCUUUAAACCAAUAGAUUGCAUCGGUUUAAAAGGCAAGACCGUCAAAUUGCGGGAAAGGGGUCAACAGCCGUUCAGUACCAAGUCUCAGGGGAAACUUUGAGAUGGCCUUGCAAAGGGUAUGGUAAUAAGCUGACGGACAUGGUCCUAACCACGCAGCCAAGUCCUAAGUCAACAGAUCUUCUGUUGAUAUGGAUGCAGUUCACAGACUAAAUGUCGGUCGGGGAAGAUGUAUUCUUCUCAUAAGAUAUAGUCGGACCUCUCCUUAAUGGGAGCUAGCGGAUGAAGUGAUGCAACACUGGAGCCGCUGGGAACUAAUUUGUAUGCGAAAGUAUAUUGAUUAGUUUUGGAGUACUCGUGGUCG
How it was run: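 The eight P1ex-region nucleotides of an intron in the knt kanamycin-resistance gene on pET-22b(+) were all randomised and the library put into E. coli BL21(DE3). Six replicate transformations were grown overnight at 37°C or 30°C on LB agar with or without 25 μg/mL kanamycin, together with 100 μg/mL carbenicillin, 50 μM IPTG and 0.2% rhamnose. Colonies were pooled and amplicon-sequenced on an Illumina HiSeq 2500. Fitness from DiMSum is the error-weighted combination of wild-type-normalised replicate fold changes, kanamycin over none.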

With CAGGAGCAAUAUUACGCAAC the “self-splicing fitness (ln)” value (37 °C) was -2.82 ± 0.52.

With CAGAAGCAAUAUUACGAAGC the “self-splicing fitness (ln)” value (37 °C) was -2.15 ± 0.56.

With CUCGAGCAAUAUUACGCCCA the “self-splicing fitness (ln)” value (30 °C) was -3.56 ± 0.6 and the “self-splicing fitness (ln)” value (37 °C) was -0.943 ± 0.53.

In the case of UCGGAGCAAUAUUACGGCCC, the “self-splicing fitness (ln)” value (30 °C) is reported as -2.75 ± 0.53.

For UCGUAGCAAUAUUACGAUCC, the “self-splicing fitness (ln)” value (37 °C) was -1.6 ± 0.82.

For GCAUAGCAAUAUUACGUAAA, the “self-splicing fitness (ln)” value (30 °C) was -2.43 ± 0.074 and the “self-splicing fitness (ln)” value (37 °C) was -1.05 ± 0.08.

In the case of CACCAGCAAUAUUACGCGAC, the “self-splicing fitness (ln)” value (30 °C) is reported as -4.31 ± 0.2 and the “self-splicing fitness (ln)” value (37 °C) is reported as -2.89 ± 0.23.

For ACAGAGCAAUAUUACGUGAA, the “self-splicing fitness (ln)” value (37 °C) was -3.62 ± 0.52.

In the case of CUAUAGCAAUAUUACGGAAU, the “self-splicing fitness (ln)” value (37 °C) is reported as -2.62 ± 0.76.

For AAUUAGCAAUAUUACGUUCG, the “self-splicing fitness (ln)” value (30 °C) was -1.16 ± 0.12 and the “self-splicing fitness (ln)” value (37 °C) was -0.728 ± 0.18.

With UGAGAGCAAUAUUACGCCCU the “self-splicing fitness (ln)” value (37 °C) was -0.899 ± 0.67.

In the case of AUCGAGCAAUAUUACGGUAG, the “self-splicing fitness (ln)” value (30 °C) is reported as -4.34 ± 0.51.

With CCAAAGCAAUAUUACGACUU the “self-splicing fitness (ln)” value (30 °C) was -3.77 ± 0.16 and the “self-splicing fitness (ln)” value (37 °C) was -3.01 ± 0.2.

For CGUCAGCAAUAUUACGCCGA, the “self-splicing fitness (ln)” value (30 °C) was -3.27 ± 1.1 and the “self-splicing fitness (ln)” value (37 °C) was -1.38 ± 0.84.

For UUAGAGCAAUAUUACGAUAC, the “self-splicing fitness (ln)” value (37 °C) was -2.88 ± 1.1.

For CUGCAGCAAUAUUACGAGCC, the “self-splicing fitness (ln)” value (37 °C) was -3.68 ± 1.

For GAUGAGCAAUAUUACGGAAG, the “self-splicing fitness (ln)” value (37 °C) was -1.47 ± 0.51.

With GGAGAGCAAUAUUACGUAUA the “self-splicing fitness (ln)” value (37 °C) was -2 ± 0.67.

For AUAAAGCAAUAUUACGUCUU, the “self-splicing fitness (ln)” value (30 °C) was 0.183 ± 0.05 and the “self-splicing fitness (ln)” value (37 °C) was 0.29 ± 0.073.

In the case of GGAGAGCAAUAUUACGCACC, the “self-splicing fitness (ln)” value (30 °C) is reported as -2.45 ± 0.64 and the “self-splicing fitness (ln)” value (37 °C) is reported as -2.29 ± 1.1.

With CAGGAGCAAUAUUACGAUGC the “self-splicing fitness (ln)” value (30 °C) was -4.21 ± 1.

In the case of CCUUAGCAAUAUUACGGACC, the “self-splicing fitness (ln)” value (30 °C) is reported as -2.33 ± 0.3 and the “self-splicing fitness (ln)” value (37 °C) is reported as -1.69 ± 0.64.

In the case of CUGUAGCAAUAUUACGAGAG, the “self-splicing fitness (ln)” value (30 °C) is reported as -3.1 ± 0.54 and the “self-splicing fitness (ln)” value (37 °C) is reported as -2.48 ± 0.77.

With CUGAAGCAAUAUUACGUAAC the “self-splicing fitness (ln)” value (30 °C) was -4.06 ± 0.51.

For AUUGAGCAAUAUUACGCCGA, the “self-splicing fitness (ln)” value (30 °C) was -3.96 ± 0.6 and the “self-splicing fitness (ln)” value (37 °C) was -1.79 ± 1.2.

In the case of UUUGAGCAAUAUUACGUCCG, the “self-splicing fitness (ln)” value (30 °C) is reported as -1.4 ± 1.2.

In the case of CUGUAGCAAUAUUACGAGAA, the “self-splicing fitness (ln)” value (30 °C) is reported as -1.9 ± 0.52.

In the case of UUCGAGCAAUAUUACGGAUC, the “self-splicing fitness (ln)” value (30 °C) is reported as -4.36 ± 0.53.

For UGGUAGCAAUAUUACGAAGU, the “self-splicing fitness (ln)” value (30 °C) was -3.19 ± 0.54 and the “self-splicing fitness (ln)” value (37 °C) was -1.11 ± 0.53.

In the case of GGAUAGCAAUAUUACGAAUA, the “self-splicing fitness (ln)” value (30 °C) is reported as -2.45 ± 0.5.

For CCAGAGCAAUAUUACGCGAC, the “self-splicing fitness (ln)” value (30 °C) was -2.94 ± 0.54 and the “self-splicing fitness (ln)” value (37 °C) was -3.98 ± 0.52.

For CUCUAGCAAUAUUACGUCGC, the “self-splicing fitness (ln)” value (30 °C) was -4.79 ± 0.72.

With GGGGAGCAAUAUUACGUCGC the “self-splicing fitness (ln)” value (30 °C) was -1.96 ± 1.2.

In the case of AGAGAGCAAUAUUACGAAGC, the “self-splicing fitness (ln)” value (37 °C) is reported as 0.459 ± 1.2.

With CGUGAGCAAUAUUACGAAUU the “self-splicing fitness (ln)” value (30 °C) was -4.52 ± 0.51.

In the case of CGCUAGCAAUAUUACGGGGG, the “self-splicing fitness (ln)” value (30 °C) is reported as -2.53 ± 0.14 and the “self-splicing fitness (ln)” value (37 °C) is reported as -2.43 ± 0.16.

In the case of AUGUAGCAAUAUUACGAUCU, the “self-splicing fitness (ln)” value (30 °C) is reported as -0.222 ± 0.056 and the “self-splicing fitness (ln)” value (37 °C) is reported as 0.524 ± 0.073.

In the case of AUAUAGCAAUAUUACGGAAA, the “self-splicing fitness (ln)” value (30 °C) is reported as -1.74 ± 0.84.

For GGAGAGCAAUAUUACGGUAA, the “self-splicing fitness (ln)” value (30 °C) was -2.76 ± 0.58 and the “self-splicing fitness (ln)” value (37 °C) was -2.97 ± 0.74.

For CCGUAGCAAUAUUACGUGCU, the “self-splicing fitness (ln)” value (30 °C) was -4.7 ± 0.59.

For UAUUAGCAAUAUUACGCGCU, the “self-splicing fitness (ln)” value (30 °C) was -0.731 ± 0.15 and the “self-splicing fitness (ln)” value (37 °C) was -0.558 ± 0.18.

In the case of UGCGAGCAAUAUUACGAUAU, the “self-splicing fitness (ln)” value (30 °C) is reported as -5.04 ± 1.

In the case of UUCCAGCAAUAUUACGUACU, the “self-splicing fitness (ln)” value (30 °C) is reported as -4.8 ± 0.51.

With GGAAAGCAAUAUUACGAACG the “self-splicing fitness (ln)” value (30 °C) was -0.51 ± 0.1 and the “self-splicing fitness (ln)” value (37 °C) was -0.441 ± 0.12.

With UGAUAGCAAUAUUACGUCUC the “self-splicing fitness (ln)” value (30 °C) was -2.23 ± 0.57 and the “self-splicing fitness (ln)” value (37 °C) was -1.73 ± 0.51.

With GGUCAGCAAUAUUACGCUUA the “self-splicing fitness (ln)” value (30 °C) was 0.0476 ± 0.059 and the “self-splicing fitness (ln)” value (37 °C) was 0.296 ± 0.078.

With CAUAAGCAAUAUUACGGGCU the “self-splicing fitness (ln)” value (30 °C) was -3.81 ± 1.

For UGGAAGCAAUAUUACGCCCA, the “self-splicing fitness (ln)” value (30 °C) was -0.787 ± 0.63.

With CUUGAGCAAUAUUACGCCUA the “self-splicing fitness (ln)” value (30 °C) was -0.743 ± 0.6.

For CUCGAGCAAUAUUACGGGCC, the “self-splicing fitness (ln)” value (30 °C) was -0.86 ± 0.91 and the “self-splicing fitness (ln)” value (37 °C) was -1.48 ± 0.56.

In the case of AGAGAGCAAUAUUACGGAUG, the “self-splicing fitness (ln)” value (30 °C) is reported as -4.49 ± 1.

In the case of GGGCAGCAAUAUUACGAUGG, the “self-splicing fitness (ln)” value (37 °C) is reported as -3.47 ± 0.72.

With AUUAAGCAAUAUUACGCGGC the “self-splicing fitness (ln)” value (30 °C) was -3.36 ± 0.53.

With GAUUAGCAAUAUUACGCCAC the “self-splicing fitness (ln)” value (30 °C) was -3.71 ± 0.59 and the “self-splicing fitness (ln)” value (37 °C) was -1.1 ± 0.66.

In the case of GGGGAGCAAUAUUACGGGAG, the “self-splicing fitness (ln)” value (30 °C) is reported as -3.06 ± 1.1.

For GUGGAGCAAUAUUACGAAAA, the “self-splicing fitness (ln)” value (37 °C) was -2.29 ± 0.64.

With GUUUAGCAAUAUUACGACCG the “self-splicing fitness (ln)” value (30 °C) was -2.97 ± 0.83 and the “self-splicing fitness (ln)” value (37 °C) was -2.36 ± 0.57.

With GCAGAGCAAUAUUACGGACG the “self-splicing fitness (ln)” value (30 °C) was -4.09 ± 0.6.

In the case of CCUAAGCAAUAUUACGCAGA, the “self-splicing fitness (ln)” value (30 °C) is reported as -3.91 ± 0.52.

With AAGGAGCAAUAUUACGGAGC the “self-splicing fitness (ln)” value (37 °C) was -2.76 ± 1.1.

For AGUGAGCAAUAUUACGCAGG, the “self-splicing fitness (ln)” value (30 °C) was -5.04 ± 1.
